The name of at least one read-out is uncertain.
Target: T1, recombinant human FAPα (Homo sapiens, UniProt Q12884)
T1 sequence (Q12884 26-760 limits assumed): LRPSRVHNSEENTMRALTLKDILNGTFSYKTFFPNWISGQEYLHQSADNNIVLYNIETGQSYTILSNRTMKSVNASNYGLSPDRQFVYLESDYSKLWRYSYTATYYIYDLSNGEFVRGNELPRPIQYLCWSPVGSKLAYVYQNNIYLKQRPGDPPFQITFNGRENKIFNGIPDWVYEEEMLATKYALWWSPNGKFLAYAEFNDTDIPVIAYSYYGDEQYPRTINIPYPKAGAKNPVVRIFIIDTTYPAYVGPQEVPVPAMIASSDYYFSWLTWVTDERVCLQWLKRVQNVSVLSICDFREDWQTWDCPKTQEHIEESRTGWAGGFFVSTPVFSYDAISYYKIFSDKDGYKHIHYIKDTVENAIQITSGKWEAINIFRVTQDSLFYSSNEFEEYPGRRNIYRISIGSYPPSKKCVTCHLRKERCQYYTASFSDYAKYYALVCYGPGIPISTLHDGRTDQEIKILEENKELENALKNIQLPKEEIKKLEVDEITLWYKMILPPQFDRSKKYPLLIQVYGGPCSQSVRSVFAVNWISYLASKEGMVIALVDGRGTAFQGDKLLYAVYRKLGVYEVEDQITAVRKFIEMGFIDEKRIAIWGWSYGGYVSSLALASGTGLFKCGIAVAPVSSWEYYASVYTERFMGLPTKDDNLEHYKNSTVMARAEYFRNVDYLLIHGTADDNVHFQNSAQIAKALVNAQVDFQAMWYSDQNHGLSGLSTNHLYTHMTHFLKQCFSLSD
Experiment: Kinetics of FRET donor/acceptor 8 mer substrates under Michaelis-Menten conditions
Type: biochemical
Settings: for kcat/Km: 8 mer FRET peptide, Michaelis-Menten conditions, approximate values; for kcat/KM: FRET donor/acceptor substrate adducts, human recombinant FAP alpha
Procedure: Three top hits, […] (SEQ ID NO:38), […] (SEQ ID NO:40), and […] (SEQ ID NO:42), were selected for further analysis. An 8 mer peptide bearing FRET donor-acceptor dyes on the N and C terminus was synthesized and evaluated as a substrate for recombinant human FAPα (RND Systems) under Michaelis-Menten conditions.
A table summarizing the kinetic properties of three of the top P4-P4′ 8 mer peptides emerging from the MSP-MS assay is provided below, where the kinetic properties were determined using FRET donor/acceptor substrate adducts and human recombinant FAP alpha.

Row | Sequence | kcat/Km | kcat/KM [s^−1M^−1]
1 | HQGPFWML (FRET labels) [tested as 8 mer FRET peptide] | ~80,000 M^−1 sec^−1 | 77687
2 | HYGPTVNK (FRET labels) [tested as 8 mer FRET peptide] | ~15,000 M^−1 sec^−1 | 14935

Source: patent US20260115332A1, “Fibroblast Activation Protein Alpha-Cleavable Pro-Peptides and Methods of Use” (The Regents of the University of California, priority 2022, published 2026)
